The exact form of at least one protein or probe is not confirmed. For some assays here: A negative result means that nothing was seen under these conditions. For some assays here: Tags and fusion partners may be left off the protein sequences shown.
What was measured:
[1] = target: hemi-apo NsrR (one [4Fe-4S] per dimer) (Streptomyces coelicolor) (UniProt Q9L132); assay: native MS; details: estimated from first part of curve, main text ~40 uM; native MS: 100 mM ammonium acetate pH 8 (30 C for nitrosylation); recombinant protein
[2] = target: apo NsrR (cluster-free) (Streptomyces coelicolor) (UniProt Q9L132); assay: native MS; details: negligible DNA binding; native MS: 100 mM ammonium acetate pH 8 (30 C for nitrosylation); recombinant protein
[3] = target: mono-nitrosylated holo NsrR (Streptomyces coelicolor) (UniProt Q9L132); assay: native MS; details: NO from DEA NONOate, 30 C, mono-nitrosylated complex not observed; native MS: 100 mM ammonium acetate pH 8 (30 C for nitrosylation); recombinant protein
[4] = target: T1, holo NsrR ([4Fe-4S] in each subunit) (Streptomyces coelicolor) (UniProt Q9L132); assay: SPR; details: kinetic, bivalent analyte model, SPR: 10 mM HEPES, 150 mM NaCl, 0.05% polysorbate 20, pH 7.4, 25 C, anaerobic, recombinant protein, label: 5' biotin on captured ReDCaT_F strand (S1)
T1 sequence (looked up, limits assumed): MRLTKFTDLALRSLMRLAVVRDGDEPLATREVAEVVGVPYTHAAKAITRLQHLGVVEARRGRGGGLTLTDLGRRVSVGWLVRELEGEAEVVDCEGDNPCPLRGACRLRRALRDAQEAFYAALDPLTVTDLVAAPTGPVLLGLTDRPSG

Sequence | Kd [1] | binding result [2] | binding result [3] | Kd ([4]; primary binding, ka 2.26e6 M-1 s-1, kd 57.93e-3 s-1) | Kd ([4]; secondary binding (further immobilised DNA))
AACACGAATATCATCTACCAAT (double strand) [hmpA1 22 bp native MS] | 41000 nM | no binding | no binding | – | –
GAAAACAAGCATCTGAGATCCCAGTTCGG / AAGAACTGGGATCTCAGATGCTTGTTTTCCCTACCCTACGTCCTCCTGC [hmpA2 29 bp SPR] | – | – | – | 25.6 nM | 281 nM

Reference: article PMC11500311, “Binding of a single nitric oxide molecule is sufficient to disrupt DNA binding of the nitrosative stress regulator NsrR†” (Chemical Science, 2024)
